These are yes or no findings as the source states them, for the method shown. Some results given as binding are weak or reduced against the parent protein; the word gives no strength.
Experiments:
[1] = biological target: soluble FGFR1 polypeptide D23 (extracellular ligand binding portion of FGFR1, Ig-like domains D2 and D3) (Homo sapiens (Human)) (UniProt P11362); test: size exclusion chromatography (Superdex 200) of purified 1:1 FGF2:FGFR1 complex, no SOS; a small peak of free FGF from dissociation on dilution
[2] = biological target: soluble FGFR1 polypeptide D23 (extracellular ligand binding portion of FGFR1, Ig-like domains D2 and D3) (Homo sapiens (Human)) (UniProt P11362); test: complex formation in solution, complex purified by size exclusion chromatography
[3] = biological target: soluble FGFR1 polypeptide D23 (extracellular ligand binding portion of FGFR1, Ig-like domains D2 and D3) (Homo sapiens (Human)) (UniProt P11362); test: size exclusion chromatography of purified FGF2-FGFR1 complex, no suramin; a small peak of free FGF from dissociation on dilution
[4] = biological target: soluble FGFR1 polypeptide D23 (extracellular ligand binding portion of FGFR1, Ig-like domains D2 and D3) (Homo sapiens (Human)) (UniProt P11362); test: X-ray crystal structure of FGF2-FGFR1-SOS complex, 2.6 A
[5] = biological target: soluble FGFR1 polypeptide D23 (extracellular ligand binding portion of FGFR1, Ig-like domains D2 and D3) (Homo sapiens (Human)) (UniProt P11362); test: size exclusion chromatography; dimerization of FGF2:FGFR1 complexes in the presence of suramin
[6] = biological target: soluble FGFR1 polypeptide D23 (extracellular ligand binding portion of FGFR1, Ig-like domains D2 and D3) (Homo sapiens (Human)) (UniProt P11362); test: size exclusion chromatography; dimerization of FGF2:FGFR1 complexes in the presence of sucrose octasulfate
[7] = biological target: soluble FGFR1 polypeptide D23 (extracellular ligand binding portion of FGFR1, Ig-like domains D2 and D3) (Homo sapiens (Human)) (UniProt P11362); test: X-ray crystal structure of 2:2:2 FGF2-FGFR1-SOS dimer, 2.6 A

The chains behind the UniProt entries cited, without tags or fusion partners. Where a name states a change or a piece, a line headed by the entry shows the natural chain unless it says otherwise.
UniProt P11362: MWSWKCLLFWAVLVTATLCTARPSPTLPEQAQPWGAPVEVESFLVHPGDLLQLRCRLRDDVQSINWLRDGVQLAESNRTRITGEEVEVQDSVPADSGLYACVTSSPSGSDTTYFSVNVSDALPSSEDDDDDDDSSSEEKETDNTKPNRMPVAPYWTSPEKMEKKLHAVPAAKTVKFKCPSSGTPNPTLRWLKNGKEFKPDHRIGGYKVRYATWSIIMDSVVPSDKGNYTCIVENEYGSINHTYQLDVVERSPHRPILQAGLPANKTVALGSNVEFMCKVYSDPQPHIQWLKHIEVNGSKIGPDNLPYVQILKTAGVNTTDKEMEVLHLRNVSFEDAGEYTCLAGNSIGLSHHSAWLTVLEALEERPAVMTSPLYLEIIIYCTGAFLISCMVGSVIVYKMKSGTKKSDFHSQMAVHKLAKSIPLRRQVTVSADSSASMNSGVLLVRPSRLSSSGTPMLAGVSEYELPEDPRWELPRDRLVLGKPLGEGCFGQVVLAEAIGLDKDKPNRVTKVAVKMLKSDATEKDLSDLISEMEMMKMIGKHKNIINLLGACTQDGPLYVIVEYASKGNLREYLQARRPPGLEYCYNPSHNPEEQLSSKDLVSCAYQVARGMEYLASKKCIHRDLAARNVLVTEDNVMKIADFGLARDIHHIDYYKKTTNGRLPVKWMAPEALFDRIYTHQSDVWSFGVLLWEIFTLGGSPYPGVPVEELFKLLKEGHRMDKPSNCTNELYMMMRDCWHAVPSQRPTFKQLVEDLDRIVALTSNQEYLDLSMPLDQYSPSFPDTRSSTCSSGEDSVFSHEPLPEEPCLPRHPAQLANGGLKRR
UniProt P09038: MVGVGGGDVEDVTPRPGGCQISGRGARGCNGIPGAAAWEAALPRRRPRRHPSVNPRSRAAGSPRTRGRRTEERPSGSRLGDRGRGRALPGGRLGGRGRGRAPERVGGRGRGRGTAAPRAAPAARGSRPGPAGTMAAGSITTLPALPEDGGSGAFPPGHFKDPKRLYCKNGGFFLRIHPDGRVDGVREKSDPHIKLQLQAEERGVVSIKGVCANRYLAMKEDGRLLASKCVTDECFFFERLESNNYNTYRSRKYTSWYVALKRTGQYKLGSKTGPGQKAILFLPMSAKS

Row | binding [1] | binding [2] | binding [3] | binding [4] | binding [5] | binding [6] | binding [7] | Substance
1 | binds | binds | binds | binds |  |  |  | FGF2 ligand polypeptide (from UniProt P09038 143-288)
2 |  |  |  |  | binds | binds | binds | soluble FGFR1 polypeptide D23 (extracellular ligand binding portion of FGFR1, Ig-like domains D2 and D3) (from UniProt P11362 142-365) (receptor)

From patent US20050187150A1, “Structure-based design and synthesis of FGF inhibitors and FGF modulator compounds” (New York University, priority 2001, published 2005)
